Hit rate of the full screen: of about 340,000 compounds, about 170 (0.05%) were called active. The shares of active, inactive and inconclusive entries below differ from those in the screen. The call rests on the fitted dose curve; in most records, active means well fitted inhibition curve with a large enough effect in the signal ratio, with a control signal flat (not every such curve was filed as active); inconclusive means small, poorly fitted or top-dose-only effect, or effect the other way, or a change in a side signal; inactive means flat fitted curve, though single readings scatter; the % refers to the signal ratio. Potencies of inconclusive entries are doubtful fits and often do not repeat.
Experiment: qHTS Assay to Find Inhibitors of Chronic Active B-Cell Receptor Signaling;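 on activity change, negative = inhibition: plate controls were basal doxycycline-induced cells for no effect and cells given 10 µM MG132 for full effect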
Details: ABC-DLBCL IkBa-CBG/CBR reporter, luminescence ratio (green luciferase fused to IkBa over red control in TMD8 lymphoma cells), 4 h; activity change, negative = inhibition: at 46.1 µM (top of the series)
In short: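 Cell line TMD8 (human ABC DLBCL), stably expressing tet-inducible CBG68-IkBa fusion and CBR; IMDM/0.5% FBS; cpd up to 46 uM; dox induction, 4 h, 37C/5% CO2; dual luminescence; green/red ratio; MG132 control.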
Potency means the concentration at half of the fitted maximal effect.

Compound | activity change, negative = inhibition | Potency
CCC(NC(=O)c1cc(COc2ccc(OC)cc2Cl)on1)c1ccncc1 (configuration not stated) | inactive | –
O=C(NNC(=O)c1cc2ccccc2cc1O)c1cccs1 | inconclusive: 214% | –
COc1cc(/C=N/Nc2nncn2N)ccc1OCc1c(C)no[n+]1[O-] | inconclusive: -25% | –
CC(=O)Nc1ccc(NC(=O)C2CCCN2S(=O)(=O)c2cccc3nsnc23)cc1 (configuration not stated) | inconclusive: 2.73% | –
COc1ccc(C2C(CC(=O)O)=C(Nc3ccccc3)C(=O)N2c2ccccc2)cc1 (configuration not stated) | – | inconclusive: 25.1 µM [falling, partial curve]
O=C(NC1CCCCCC1)c1cccc(S(=O)(=O)N2CCOCC2)c1 | inconclusive: 4.94% | –
Cc1cccc(C)c1-n1c(=O)n(Cc2ccccc2)c(=O)c2[nH]cnc21 | inconclusive: -17.2% | –
COc1ccc(NC(=O)CN(C)CC(=O)Nc2cccc(C(C)=O)c2)cc1 | inconclusive: 0.0701% | –
Cc1ccc(N=Cc2c(O)n(-c3nccs3)c(=O)c3ccccc23)c(C)c1 | inconclusive: 1.52% | –
CCNC(=S)Nc1ccc(OCC)cc1 | inactive | –
COc1ccc(C(=O)NC2CC3CCCC(C2)N3Cc2ccccc2)cc1OC (configuration not stated) | inactive | –
O=C(Nc1cccc(-c2nn[nH]n2)c1)c1ccc(Cl)s1 | inconclusive: -0.6% | –
O=C(OCC(=O)N1CCCc2ccccc21)c1cc(S(=O)(=O)N2CCOCC2)ccc1Cl | – | inconclusive: 32.6 µM [falling, partial curve, poor fit]
COc1ccc(-c2sc3ccccc3c2C#CCO)cc1 | inconclusive: 25.5% | –
O=C(c1noc2c1CCCC2)N1CCC(CO)(Cc2ccccc2Cl)CC1 | inactive | –
COc1ccccc1/C=C\C(=O)NCC(=O)N/N=C(/C)c1cccc([N+](=O)[O-])c1 | – | inconclusive: 15.8 µM [falling, partial curve, poor fit]
CCCc1cc(C(=O)NCc2cccs2)no1 | – | inconclusive: 35.5 µM [falling, single point]
COc1cc(C2c3c(oc4ccccc4c3=O)C(=O)N2Cc2ccc(C)cc2)ccc1O (configuration not stated) | inactive | –
COCc1cc(C)nc2sc(C(=O)NC3CCCCC3)c(N)c12 | – | inconclusive: 20.6 µM [falling, partial curve]
Cc1ccc(-c2cc(C(=O)n3cnc4ccccc43)c3ccccc3n2)cc1C | inactive | –
C/C=C(\C)CN1CCN(c2cccc(C)c2C)CC1 | inactive | –
COc1cccc(/C=C2\SC(=S)N(CC3CCCO3)C2=O)c1 (configuration not stated) | inconclusive: 0.486% | –
CC[n+]1c(C)sc2cc(OC)ccc21 | – | inconclusive: 35.5 µM [falling, single point]
O=C(COC(=O)c1cc(-c2ccccc2)nc2ccccc12)Nc1ccc2c(c1)OCO2 | inactive | –
COc1cc(C)ccc1OCCCON1C(=O)CCC1=O | inconclusive: 4.56% | –
CCN(CC)c1cc(Cl)c2nonc2c1N | inconclusive: 2.32% | –

Compound | activity change, negative = inhibition | Potency
COc1cc2ccc(=O)oc2c(CC=C(C)C)c1OC | inactive | –
COc1cc(C(=O)N2CCN(C3CCC(C)CC3)CC2)cc(OC)c1OC (configuration not stated) | inconclusive: 2.78% | –
CCOC(=O)c1cnc2c(OC)cccc2c1N1CC(C)CC(C)C1 (configuration not stated) | – | inconclusive: 31.6 µM [falling, partial curve, poor fit]
O=C(CCC1CCCCC1)Nc1ccccc1-c1ccccc1 | inconclusive: 4.48% | –
O=C(CSc1ncnc2c1nnn2Cc1ccccc1F)N1CCN(c2ccccc2)CC1 | inactive | –
Cc1cccc(NC(=S)N(CCCN2CCCC2)Cc2cccn2Cc2ccc(Cl)cc2)c1 | – | inconclusive: 12.6 µM [falling, partial curve]
COc1cc(/C=N/N2C(=O)CSC2=S)cc(Br)c1O | inconclusive: 4.25% | –
Cc1cccn2cc(-c3cccc(S(=O)(=O)N4CC(C)OC(C)C4)c3)nc12 (configuration not stated) | inactive | –
COc1ccc(C(=O)OCC(=O)NCc2ccco2)cc1S(=O)(=O)N1CCN(c2cccc(Cl)c2)CC1 | – | inconclusive: 20.6 µM [rising, partial curve]
CCOC(=O)Cc1csc(NC(=O)c2ccc(Br)o2)n1 | – | inconclusive: 10.3 µM [falling, partial curve, poor fit]
Cn1c(Oc2ccc(Cl)cc2)c(C=O)c2ccccc21 | – | inconclusive: 31.6 µM [falling, partial curve, poor fit]
CCCCc1ccc(NC(=O)CSCc2cc(=O)[nH][nH]2)cc1 | inconclusive: 11.5% | –
CCOc1ncccc1C(=O)N=C1SCCN1C(=O)c1cccnc1OCC | inconclusive: -2.08% | –
C(=NC12CN3CN(CN(C3)C1)C2)c1ccc2c(c1)OCO2 | inconclusive: -2.84% | –
COc1ccc(-c2cc(C(=O)N/N=C/c3sccc3C)c3ccccc3n2)c(OC)c1 | inactive | –
O=C(Nc1ccc(N2CCOCC2)c(C(=O)O)c1)c1ccc(Br)cc1 | – | inconclusive: 35.5 µM [falling, single point]
CCOc1ncccc1C(=O)Nc1cccc(S(=O)(=O)N2CCOCC2)c1 | inconclusive: 4.84% | –
C/C(=N\NC(=O)CSCc1ccccc1Cl)c1cc(O)ccc1O | – | inconclusive: 25.1 µM [falling, single point]
COc1ccc(NC(=S)N(CCCN2CCCC2)Cc2cccn2Cc2ccc(Cl)cc2)cc1Cl | – | inconclusive: 35.5 µM [falling, single point]
O=C(NC1CCCC1)c1ccc2c(c1)N(Cc1ccc(F)cc1)CCS2 | – | inconclusive: 10 µM [rising, partial curve, poor fit]
CC12CCC(=O)C=C1CCC1C2C(=O)CC2(C)C1CCC2(O)C(=O)CO (configuration not stated) | inconclusive: 5.62% | –
COc1ccc(C(=O)NC(=S)NC2CCCCC2)cc1 | inconclusive: -19.9% | –
COCCn1nnnc1C(c1ccc(OC)c(OC)c1)N1CCN(c2nc3ccccc3s2)CC1 (configuration not stated) | inconclusive: -0.383% | –
N#CCCS(=O)(=O)c1nnnn1-c1ccccc1 | inconclusive: 10.1% | –
CCC1(c2ccc(F)cc2)NC(=O)N(CC(=O)NCc2ccc(F)cc2)C1=O (configuration not stated) | inactive | –
Cc1cc2oc(=O)cc(C)c2cc1NC(=O)CCl | – | inconclusive: 15.8 µM [falling, partial curve]

Complete entries, looked up by structure. Values in the order: activity change, negative = inhibition	Potency
CCOc1ncccc1C(=O)Nc1cccc(S(=O)(=O)N2CCOCC2)c1 as listed: inconclusive: 4.84%	–
COCCn1nnnc1C(c1ccc(OC)c(OC)c1)N1CCN(c2nc3ccccc3s2)CC1 (configuration not stated) as listed: inconclusive: -0.383%	–
O=C(NC1CCCCCC1)c1cccc(S(=O)(=O)N2CCOCC2)c1 as listed: inconclusive: 4.94%	–
